Measurements from ChEMBL document CHEMBL4813991, “Design, synthesis and bioactivity study on 5-phenylfuran derivatives as potent reversal agents against P-glycoprotein-mediated multidrug resistance in MCF-7/ADR cell” (Eur J Med Chem, 2021).
pIC50: −log10 of the molar value.

Test system: MCF7
Experiment: cells
Conditions: Homo sapiens, MCF7, 48 h

pIC50: 6.37
SMILES: COc1cccc2c1C(=O)c1c(O)c3c(c(O)c1C2=O)C[C@@](O)(C(=O)CO)C[C@@H]3O[C@H]1C[C@H](N)[C@H](O)[C@H](C)O1 [DOXORUBICIN]
